Experimental data: patent publication US20210047695A1
Results are given in words; binding and its absence hold for the method and conditions named. In cells and extracts the contact can be indirect. Some binding calls cover weakened binding; strength is not graded here. Tags and fused reporters may be left off the sequences shown. One block for each binder: values may come before it.

What was measured:
SMC1A [1] = target: T1, SMC1A (UniProt Q14683); experiment: co-immunoprecipitation: anti-FLAG IP from lysates of HEK293 cells transfected with FLAG-STAG2, Western blot IB:SMC1 (endogenous SMC1)
T1 sequence (looked up): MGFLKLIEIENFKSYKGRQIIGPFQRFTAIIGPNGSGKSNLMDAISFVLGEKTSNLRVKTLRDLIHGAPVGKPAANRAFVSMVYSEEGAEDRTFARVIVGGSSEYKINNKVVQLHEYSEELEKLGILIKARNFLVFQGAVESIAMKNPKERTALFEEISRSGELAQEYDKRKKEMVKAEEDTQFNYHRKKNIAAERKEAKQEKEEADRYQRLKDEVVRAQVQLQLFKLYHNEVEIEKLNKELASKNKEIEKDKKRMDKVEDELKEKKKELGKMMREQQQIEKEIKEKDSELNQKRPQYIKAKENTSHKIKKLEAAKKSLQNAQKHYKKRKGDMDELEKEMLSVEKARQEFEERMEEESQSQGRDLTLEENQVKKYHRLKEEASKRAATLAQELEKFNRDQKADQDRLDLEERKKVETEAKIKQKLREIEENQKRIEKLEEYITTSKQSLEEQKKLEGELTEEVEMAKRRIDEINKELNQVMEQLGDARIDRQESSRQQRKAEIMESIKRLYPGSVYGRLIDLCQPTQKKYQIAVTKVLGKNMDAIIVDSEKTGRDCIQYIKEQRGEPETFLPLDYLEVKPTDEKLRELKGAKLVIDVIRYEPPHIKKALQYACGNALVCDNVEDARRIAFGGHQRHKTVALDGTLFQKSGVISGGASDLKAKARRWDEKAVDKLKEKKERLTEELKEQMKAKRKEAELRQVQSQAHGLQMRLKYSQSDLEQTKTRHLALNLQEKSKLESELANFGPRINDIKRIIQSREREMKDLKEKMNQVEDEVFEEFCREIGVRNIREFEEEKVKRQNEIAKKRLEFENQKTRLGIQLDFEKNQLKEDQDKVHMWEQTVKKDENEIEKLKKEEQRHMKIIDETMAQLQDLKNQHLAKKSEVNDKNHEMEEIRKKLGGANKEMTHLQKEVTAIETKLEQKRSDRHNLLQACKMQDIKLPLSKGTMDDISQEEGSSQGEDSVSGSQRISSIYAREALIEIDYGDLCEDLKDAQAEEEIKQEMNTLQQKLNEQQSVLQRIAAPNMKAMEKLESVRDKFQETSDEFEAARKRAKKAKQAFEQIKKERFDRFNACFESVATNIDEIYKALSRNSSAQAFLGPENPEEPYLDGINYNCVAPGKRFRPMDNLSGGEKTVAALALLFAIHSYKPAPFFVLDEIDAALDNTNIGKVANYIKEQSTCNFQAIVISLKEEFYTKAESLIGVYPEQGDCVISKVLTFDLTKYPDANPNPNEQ

SMC1A [2] = target: T1, SMC1A; experiment: anti-FLAG co-immunoprecipitation from HEK293 lysates, Western blot
SMC1A [3] = target: T1, SMC1A; experiment: co-immunoprecipitation: anti-FLAG IP from lysates of HEK293 cells transfected with FLAG-STAG2 D193N, Western blot IB:SMC1 (endogenous SMC1)
SMC1A [4] = target: T1, SMC1A; experiment: anti-FLAG co-immunoprecipitation from HEK293 lysates, Western blot; weaker than wild type
RAD21 [5] = target: T2, RAD21 (UniProt O60216); experiment: co-immunoprecipitation: anti-FLAG IP from lysates of HEK293 cells transfected with FLAG-STAG3, Western blot IB:RAD21 (endogenous RAD21)
T2 sequence (looked up): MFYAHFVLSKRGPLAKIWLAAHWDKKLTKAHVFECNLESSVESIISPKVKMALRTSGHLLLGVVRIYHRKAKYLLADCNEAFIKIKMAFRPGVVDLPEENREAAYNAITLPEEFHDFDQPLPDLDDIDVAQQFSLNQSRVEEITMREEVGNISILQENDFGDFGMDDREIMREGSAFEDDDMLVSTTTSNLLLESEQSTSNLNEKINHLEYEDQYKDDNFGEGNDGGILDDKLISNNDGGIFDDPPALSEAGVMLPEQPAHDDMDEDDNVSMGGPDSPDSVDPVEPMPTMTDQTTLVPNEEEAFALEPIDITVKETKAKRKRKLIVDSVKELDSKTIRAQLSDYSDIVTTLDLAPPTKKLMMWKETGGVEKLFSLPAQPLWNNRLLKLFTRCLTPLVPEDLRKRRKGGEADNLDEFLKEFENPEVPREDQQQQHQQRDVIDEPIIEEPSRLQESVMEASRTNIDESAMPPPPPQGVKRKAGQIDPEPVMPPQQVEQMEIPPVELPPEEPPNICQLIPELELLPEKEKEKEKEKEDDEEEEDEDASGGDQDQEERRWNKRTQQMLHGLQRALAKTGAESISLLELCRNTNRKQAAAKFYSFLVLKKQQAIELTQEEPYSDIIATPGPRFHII

RAD21 [6] = target: T2, RAD21; experiment: anti-FLAG co-immunoprecipitation from HEK293 lysates, Western blot

binding (SMC1A [1]): binds
binding (SMC1A [2]): binds
B1: FLAG-tagged wild-type STAG2 (protein, human, UniProt Q8N3U4 1-1231, looked up, not shown: small tags and cut ends)
chain: MIAAPEIPTDFNLLQESETHFSSDTDFEDIEGKNQKQGKGKTCKKGKKGPAEKGKGGNGGGKPPSGPNRMNGHHQQNGVENMMLFEVVKMGKSAMQSVVDDWIESYKHDRDIALLDLINFFIQCSGCKGVVTAEMFRHMQNSEIIRKMTEEFDEDSGDYPLTMAGPQWKKFKSSFCEFIGVLVRQCQYSIIYDEYMMDTVISLLTGLSDSQVRAFRHTSTLAAMKLMTALVNVALNLSINMDNTQRQYEAERNKMIGKRANERLELLLQKRKELQENQDEIENMMNAIFKGVFVHRYRDAIAEIRAICIEEIGIWMKMYSDAFLNDSYLKYVGWTMHDKQGEVRLKCLTALQGLYYNKELNSKLELFTSRFKDRIVSMTLDKEYDVAVQAIKLLTLVLQSSEEVLTAEDCENVYHLVYSAHRPVAVAAGEFLYKKLFSRRDPEEDGMMKRRGRQGPNANLVKTLVFFFLESELHEHAAYLVDSMWDCATELLKDWECMNSLLLEEPLSGEEALTDRQESALIEIMLCTIRQAAECHPPVGRGTGKRVLTAKEKKTQLDDRTKITELFAVALPQLLAKYSVDAEKVTNLLQLPQYFDLEIYTTGRLEKHLDALLRQIRNIVEKHTDTDVLEACSKTYHALCNEEFTIFNRVDISRSQLIDELADKFNRLLEDFLQEGEEPDEDDAYQVLSTLKRITAFHNAHDLSKWDLFACNYKLLKTGIENGDMPEQIVIHALQCTHYVILWQLAKITESSSTKEDLLRLKKQMRVFCQICQHYLTNVNTTVKEQAFTILCDILMIFSHQIMSGGRDMLEPLVYTPDSSLQSELLSFILDHVFIEQDDDNNSADGQQEDEASKIEALHKRRNLLAAFCKLIVYTVVEMNTAADIFKQYMKYYNDYGDIIKETMSKTRQIDKIQCAKTLILSLQQLFNEMIQENGYNFDRSSSTFSGIKELARRFALTFGLDQLKTREAIAMLHKDGIEFAFKEPNPQGESHPPLNLAFLDILSEFSSKLLRQDKRTVYVYLEKFMTFQMSLRREDVWLPLMSYRNSLLAGGDDDTMSVISGISSRGSTVRSKKSKPSTGKRKVVEGMQLSLTEESSSSDSMWLSREQTLHTPVMMQTPQLTSTIMREPKRLRPEDSFMSVYPMQTEHHQTPLDYNRRGTSLMEDDEEPIVEDVMMSSEGRIEDLNEGMDFDTMDIDLPPSKNRRERTELKPDFFDPASIMDESVLGVSMF

binding (SMC1A [3]): binds
binding (SMC1A [4]): binds
B2: FLAG-tagged STAG2 Asp193Asn mutant (protein, human, UniProt Q8N3U4 1-1231, looked up, not shown: small tags and cut ends)
chain: MIAAPEIPTDFNLLQESETHFSSDTDFEDIEGKNQKQGKGKTCKKGKKGPAEKGKGGNGGGKPPSGPNRMNGHHQQNGVENMMLFEVVKMGKSAMQSVVDDWIESYKHDRDIALLDLINFFIQCSGCKGVVTAEMFRHMQNSEIIRKMTEEFDEDSGDYPLTMAGPQWKKFKSSFCEFIGVLVRQCQYSIIYNEYMMDTVISLLTGLSDSQVRAFRHTSTLAAMKLMTALVNVALNLSINMDNTQRQYEAERNKMIGKRANERLELLLQKRKELQENQDEIENMMNAIFKGVFVHRYRDAIAEIRAICIEEIGIWMKMYSDAFLNDSYLKYVGWTMHDKQGEVRLKCLTALQGLYYNKELNSKLELFTSRFKDRIVSMTLDKEYDVAVQAIKLLTLVLQSSEEVLTAEDCENVYHLVYSAHRPVAVAAGEFLYKKLFSRRDPEEDGMMKRRGRQGPNANLVKTLVFFFLESELHEHAAYLVDSMWDCATELLKDWECMNSLLLEEPLSGEEALTDRQESALIEIMLCTIRQAAECHPPVGRGTGKRVLTAKEKKTQLDDRTKITELFAVALPQLLAKYSVDAEKVTNLLQLPQYFDLEIYTTGRLEKHLDALLRQIRNIVEKHTDTDVLEACSKTYHALCNEEFTIFNRVDISRSQLIDELADKFNRLLEDFLQEGEEPDEDDAYQVLSTLKRITAFHNAHDLSKWDLFACNYKLLKTGIENGDMPEQIVIHALQCTHYVILWQLAKITESSSTKEDLLRLKKQMRVFCQICQHYLTNVNTTVKEQAFTILCDILMIFSHQIMSGGRDMLEPLVYTPDSSLQSELLSFILDHVFIEQDDDNNSADGQQEDEASKIEALHKRRNLLAAFCKLIVYTVVEMNTAADIFKQYMKYYNDYGDIIKETMSKTRQIDKIQCAKTLILSLQQLFNEMIQENGYNFDRSSSTFSGIKELARRFALTFGLDQLKTREAIAMLHKDGIEFAFKEPNPQGESHPPLNLAFLDILSEFSSKLLRQDKRTVYVYLEKFMTFQMSLRREDVWLPLMSYRNSLLAGGDDDTMSVISGISSRGSTVRSKKSKPSTGKRKVVEGMQLSLTEESSSSDSMWLSREQTLHTPVMMQTPQLTSTIMREPKRLRPEDSFMSVYPMQTEHHQTPLDYNRRGTSLMEDDEEPIVEDVMMSSEGRIEDLNEGMDFDTMDIDLPPSKNRRERTELKPDFFDPASIMDESVLGVSMF

binding (RAD21 [5]): binds
binding (RAD21 [6]): binds
B3: FLAG-tagged wild-type STAG3 (protein, human, UniProt Q9UJ98 1-1225, looked up, not shown: small tags and cut ends)
chain: MSSPLQRAVGDTKRALSASSSSSASLPFDDRDSNHTSEGNGDSLLADEDTDFEDSLNRNVKKRAAKRPPKTTPVAKHPKKGSRVVHRHSRKQSEPPANDLFNAVKAAKSDMQSLVDEWLDSYKQDQDAGFLELVNFFIQSCGCKGIVTPEMFKKMSNSEIIQHLTEQFNEDSGDYPLIAPGPSWKKFQGSFCEFVRTLVCQCQYSLLYDGFPMDDLISLLTGLSDSQVRAFRHTSTLAAMKLMTSLVKVALQLSVHQDNNQRQYEAERNKGPGQRAPERLESLLEKRKELQEHQEEIEGMMNALFRGVFVHRYRDVLPEIRAICIEEIGCWMQSYSTSFLTDSYLKYIGWTLHDKHREVRLKCVKALKGLYGNRDLTTRLELFTSRFKDRMVSMVMDREYDVAVEAVRLLILILKNMEGVLTDADCESVYPVVYASHRGLASAAGEFLYWKLFYPECEIRMMGGREQRQSPGAQRTFFQLLLSFFVESELHDHAAYLVDSLWDCAGARLKDWEGLTSLLLEKDQNLGDVQESTLIEILVSSARQASEGHPPVGRVTGRKGLTSKERKTQADDRVKLTEHLIPLLPQLLAKFSADAEKVTPLLQLLSCFDLHIYCTGRLEKHLELFLQQLQEVVVKHAEPAVLEAGAHALYLLCNPEFTFFSRADFARSQLVDLLTDRFQQELEELLQSSFLDEDEVYNLAATLKRLSAFYNTHDLTRWELYEPCCQLLQKAVDTGEVPHQVILPALTLVYFSILWTLTHISKSDASQKQLSSLRDRMVAFCELCQSCLSDVDTEIQEQAFVLLSDLLLIFSPQMIVGGRDFLRPLVFFPEATLQSELASFLMDHVFIQPGDLGSGDSQEDHLQIERLHQRRRLLAGFCKLLLYGVLEMDAASDVFKHYNKFYNDYGDIIKETLTRARQIDRSHCSRILLLSLKQLYTELLQEHGPQGLNELPAFIEMRDLARRFALSFGPQQLQNRDLVVMLHKEGIQFSLSELPPAGSSNQPPNLAFLELLSEFSPRLFHQDKQLLLSYLEKCLQHVSQAPGHPWGPVTTYCHSLSPVENTAETSPQVLPSSKRRRVEGPAKPNREDVSSSQEESLQLNSIPPTPTLTSTAVKSRQPLWGLKEMEEEDGSELDFAQGQPVAGTERSRFLGPQYFQTPHNPSGPGLGNQLMRLSLMEEDEEEELEIQDESNEERQDTDMQASSYSSTSERGLDLLDSTELDIEDF
